Some results were stated once for a whole list of compounds, not compound by compound.
Test system: WS-1 cells
Assay: Evaluation on cell toxicity of carrier peptide fragment (CCK-8 cell viability)
Assay type: cell-based, human
Conditions: sample concentration 100 µM, 24 hours, CCK-8, absorbance 450 nm, compared to 1.67% of DMSO control

With “Ac-KKRTLRKDERKKR-FAM (N-terminal acetyl, C-terminal FAM) [Example 1]” the cell viability was “did not decrease”.

— patent publication EP4559927A1, “CARRIER PEPTIDE FRAGMENT AND USE THEREOF” (Toagosei Co., Ltd., priority 2022, dated 2025)
